Measured values as given in PMC6755085, “Cyclic oligoadenylate signalling mediates Mycobacterium tuberculosis CRISPR defence” (Nucleic Acids Research, 2019).
No constants are given. Whether binding was seen depends on the method and setting. Binding seen in cells or lysates may run through a third protein. Some binding calls cover weakened binding; strength is not graded here.

The chains behind the UniProt entries cited, without tags or fusion partners.
UniProt P9WJF6, whole entry: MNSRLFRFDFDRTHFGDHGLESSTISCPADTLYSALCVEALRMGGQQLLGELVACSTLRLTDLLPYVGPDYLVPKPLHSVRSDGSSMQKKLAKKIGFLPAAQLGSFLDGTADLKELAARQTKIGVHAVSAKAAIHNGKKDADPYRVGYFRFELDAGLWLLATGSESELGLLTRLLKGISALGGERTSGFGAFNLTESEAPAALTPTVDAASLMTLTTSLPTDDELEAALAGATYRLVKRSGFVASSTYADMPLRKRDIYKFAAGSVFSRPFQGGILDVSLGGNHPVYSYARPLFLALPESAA
UniProt P9WJF4, whole entry: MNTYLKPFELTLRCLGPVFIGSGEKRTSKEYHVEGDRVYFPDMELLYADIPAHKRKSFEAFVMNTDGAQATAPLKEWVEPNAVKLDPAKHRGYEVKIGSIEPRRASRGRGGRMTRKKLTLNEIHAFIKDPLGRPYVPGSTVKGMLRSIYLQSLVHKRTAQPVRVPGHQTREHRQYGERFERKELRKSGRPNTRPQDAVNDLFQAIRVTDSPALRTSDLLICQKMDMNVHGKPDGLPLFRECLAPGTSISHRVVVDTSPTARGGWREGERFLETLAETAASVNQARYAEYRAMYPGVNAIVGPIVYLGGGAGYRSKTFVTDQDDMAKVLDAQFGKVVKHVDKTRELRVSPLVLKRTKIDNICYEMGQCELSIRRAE

Target: Mycobacterium tuberculosis Csm4 (Cas5), His8-V5-tagged (Mycobacterium tuberculosis) (UniProt P9WJF6)
Assay: pull-down

Mycobacterium tuberculosis Csm5 (from UniProt P9WJF4 1-375)
binding: binds
